# In the supplement of paper PMC8728848:
# The other results are listed elsewhere or left out.
# Legend:
# Assay in all cases: glycan array binding signal (z-score within array); higher = stronger binding
# Details in all cases: glycan notation: IUPAC condensed, linker removed
# [1] = target: Neu5Ac(a2-3)Gal(b1-4)GlcNAc(b1-3)[Neu5Ac(a2-3)Gal(b1-4)GlcNAc(b1-6)]GalNAc
# Outline: (§1)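 The binding signal is a Z-score computed within each array. Data were drawn from 3228 arrays in the Consortium for Functional Glycomics database, restricted to those with a known protein sequence. Scores were averaged over arrays of the same protein sequence at different concentrations or buffers, and over linkers, and negative values can be taken as non-binding.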
# [2] = target: Neu5Ac(a2-3)Gal(b1-4)GlcNAc(b1-6)GalNAc
# Outline: as §1
# [3] = target: Neu5Ac(a2-3)Gal(b1-4)GlcNAc(b1-6)[Gal(b1-3)]GalNAc
# Outline: as §1
# [4] = target: Neu5Ac(a2-3)Gal(b1-4)GlcNAc(b1-6)[Neu5Ac(a2-3)Gal(b1-3)]GalNAc
# Outline: as §1
# [5] = target: Neu5Ac(a2-3)Gal(b1-4)GlcNAc6S
# Outline: as §1
# [6] = target: Neu5Ac(a2-3)Gal(b1-4)[Fuc(a1-3)]GlcNAc
# Outline: as §1
# [7] = target: Neu5Ac(a2-3)Gal(b1-4)[Fuc(a1-3)]GlcNAc(b1-2)Man
# Outline: as §1
# [8] = target: Neu5Ac(a2-3)Gal(b1-4)[Fuc(a1-3)]GlcNAc(b1-3)Gal
# Outline: as §1
# [9] = target: Neu5Ac(a2-3)Gal(b1-4)[Fuc(a1-3)]GlcNAc(b1-3)Gal(b1-4)GlcNAc
# Outline: as §1
# [10] = target: Neu5Ac(a2-3)Gal(b1-4)[Fuc(a1-3)]GlcNAc(b1-3)Gal(b1-4)[Fuc(a1-3)]GlcNAc(b1-3)Gal(b1-4)[Fuc(a1-3)]GlcNAc
# Outline: as §1
# [11] = target: Neu5Ac(a2-3)Gal(b1-4)[Fuc(a1-3)]GlcNAc(b1-3)GalNAc
# Outline: as §1
# [12] = target: Neu5Ac(a2-3)Gal(b1-4)[Fuc(a1-3)]GlcNAc(b1-6)[Gal(b1-3)]GalNAc
# Outline: as §1
# [13] = target: Neu5Ac(a2-3)Gal(b1-4)[Fuc(a1-3)]GlcNAc(b1-6)[Neu5Ac(a2-3)Gal(b1-3)]GalNAc
# Outline: as §1
# [14] = target: Neu5Ac(a2-3)Gal(b1-4)[Fuc(a1-3)]GlcNAc6S
# Outline: as §1
# [15] = target: Neu5Ac(a2-3)Gal6S(b1-4)GlcNAc
# Outline: as §1
# [16] = target: Neu5Ac(a2-3)Gal6S(b1-4)[Fuc(a1-3)]GlcNAc
# Outline: as §1
# Neu5Ac(a2-3)GalNAc = target: Neu5Ac(a2-3)GalNAc
# Outline: as §1
# [17] = target: Neu5Ac(a2-3)GalNAc(b1-4)GlcNAc
# Outline: as §1
# [18] = target: Neu5Ac(a2-3)[GalNAc(b1-4)]Gal(b1-4)Glc
# Outline: as §1
# [19] = target: Neu5Ac(a2-3)[GalNAc(b1-4)]Gal(b1-4)GlcNAc
# Outline: as §1
# [20] = target: Neu5Ac(a2-3)[GalNAc(b1-4)]Gal(b1-4)GlcNAc(b1-3)GalNAc
# Outline: as §1
# [21] = target: Neu5Ac(a2-3)[Neu5Ac(a2-6)]GalNAc
# Outline: as §1
# Neu5Ac(a2-6)Gal = target: Neu5Ac(a2-6)Gal
# Outline: as §1
# [22] = target: Neu5Ac(a2-6)Gal(b1-3)GlcNAc(b1-3)[Gal(b1-4)GlcNAc(b1-6)]Gal(b1-4)Glc
# Outline: as §1
# Neu5Ac(a2-6)Gal(b1-4)Glc = target: Neu5Ac(a2-6)Gal(b1-4)Glc
# Outline: as §1
# [23] = target: Neu5Ac(a2-6)Gal(b1-4)GlcNAc
# Outline: as §1
# [24] = target: Neu5Ac(a2-6)Gal(b1-4)GlcNAc(b1-2)Man
# Outline: as §1
# [25] = target: Neu5Ac(a2-6)Gal(b1-4)GlcNAc(b1-2)Man(a1-3)Man(b1-4)GlcNAc(b1-4)GlcNAc
# Outline: as §1
# [26] = target: Neu5Ac(a2-6)Gal(b1-4)GlcNAc(b1-2)Man(a1-3)[Gal(b1-4)GlcNAc(b1-2)Man(a1-6)]Man(b1-4)GlcNAc(b1-4)GlcNAc
# Outline: as §1
# [27] = target: Neu5Ac(a2-6)Gal(b1-4)GlcNAc(b1-2)Man(a1-3)[GlcNAc(b1-2)Man(a1-6)]Man(b1-4)GlcNAc(b1-4)GlcNAc
# Outline: as §1
# [28] = target: Neu5Ac(a2-6)Gal(b1-4)GlcNAc(b1-2)Man(a1-3)[GlcNAc(b1-4)][Neu5Ac(a2-6)Gal(b1-4)GlcNAc(b1-2)Man(a1-6)]Man(b1-4)GlcNAc(b1-4)GlcNAc
# Outline: as §1
# [29] = target: Neu5Ac(a2-6)Gal(b1-4)GlcNAc(b1-2)Man(a1-3)[Man(a1-6)]Man(b1-4)GlcNAc(b1-4)GlcNAc
# Outline: as §1
# [30] = target: Neu5Ac(a2-6)Gal(b1-4)GlcNAc(b1-2)Man(a1-3)[Neu5Ac(a2-3)Gal(b1-4)GlcNAc(b1-2)Man(a1-6)]Man(b1-4)GlcNAc(b1-4)GlcNAc
# Outline: as §1
# [31] = target: Neu5Ac(a2-6)Gal(b1-4)GlcNAc(b1-2)Man(a1-3)[Neu5Ac(a2-6)Gal(b1-4)GlcNAc(b1-2)Man(a1-6)]Man(b1-4)GlcNAc(b1-4)GlcNAc
# Outline: as §1
# [32] = target: Neu5Ac(a2-6)Gal(b1-4)GlcNAc(b1-2)Man(a1-3)[Neu5Ac(a2-6)Gal(b1-4)GlcNAc(b1-2)Man(a1-6)]Man(b1-4)GlcNAc(b1-4)[Fuc(a1-6)]GlcNAc
# Outline: as §1
# [33] = target: Neu5Ac(a2-6)Gal(b1-4)GlcNAc(b1-2)Man(a1-6)Man(b1-4)GlcNAc(b1-4)GlcNAc
# Outline: as §1
# [34] = target: Neu5Ac(a2-6)Gal(b1-4)GlcNAc(b1-2)Man(a1-6)[Gal(b1-4)GlcNAc(b1-2)Man(a1-3)]Man(b1-4)GlcNAc(b1-4)GlcNAc
# Outline: as §1
# [35] = target: Neu5Ac(a2-6)Gal(b1-4)GlcNAc(b1-2)Man(a1-6)[GlcNAc(b1-2)Man(a1-3)]Man(b1-4)GlcNAc(b1-4)GlcNAc
# Outline: as §1
# [36] = target: Neu5Ac(a2-6)Gal(b1-4)GlcNAc(b1-2)Man(a1-6)[Man(a1-3)]Man(b1-4)GlcNAc(b1-4)GlcNAc
# Outline: as §1
# [37] = target: Neu5Ac(a2-6)Gal(b1-4)GlcNAc(b1-2)[Neu5Ac(a2-6)Gal(b1-4)GlcNAc(b1-4)]Man(a1-3)[GlcNAc(b1-4)][Neu5Ac(a2-6)Gal(b1-4)GlcNAc(b1-2)[Neu5Ac(a2-6)Gal(b1-4)GlcNAc(b1-6)]Man(a1-6)]Man(b1-4)GlcNAc(b1-4)GlcNAc
# Outline: as §1
# [38] = target: Neu5Ac(a2-6)Gal(b1-4)GlcNAc(b1-2)[Neu5Ac(a2-6)Gal(b1-4)GlcNAc(b1-4)]Man(a1-3)[GlcNAc(b1-4)][Neu5Ac(a2-6)Gal(b1-4)GlcNAc(b1-4)Man(a1-6)]Man(b1-4)GlcNAc(b1-4)GlcNAc
# Outline: as §1
# [39] = target: Neu5Ac(a2-6)Gal(b1-4)GlcNAc(b1-2)[Neu5Ac(a2-6)Gal(b1-4)GlcNAc(b1-6)]Man(a1-6)[Neu5Ac(a2-6)Gal(b1-4)GlcNAc(b1-2)Man(a1-3)][GlcNAc(b1-4)]Man(b1-4)GlcNAc(b1-4)GlcNAc
# Outline: as §1
# [40] = target: Neu5Ac(a2-6)Gal(b1-4)GlcNAc(b1-3)Gal(b1-3)GlcNAc
# Outline: as §1
# [41] = target: Neu5Ac(a2-6)Gal(b1-4)GlcNAc(b1-3)Gal(b1-4)GlcNAc
# Outline: as §1
# [42] = target: Neu5Ac(a2-6)Gal(b1-4)GlcNAc(b1-3)Gal(b1-4)GlcNAc(b1-2)Man(a1-3)[Neu5Ac(a2-6)Gal(b1-4)GlcNAc(b1-3)Gal(b1-4)GlcNAc(b1-2)Man(a1-6)]GalNAc
# Outline: as §1
binder,measurement,setting,value
Epa8 (Candida glabrata) (protein) MGSSHHHHHHSSGLVPRGSHMASSRALSDYPLGCSPLLGTKLTPGLSMELYEYPLDNHGIGPHCWDPAYLNPEYPRTGFESHKLIGTAQNVMSLNFEHRTQDCHVEFSNLPASFNFPDQITLTNFTMLLYGYFKPKESGRYRFHMEADDLLLMNLGAGNAFDCCAHEATRNNLGDYIAYDIWAGTRKDVEVFLEKEVFYPLRLFFNNRDGRAALDFSYYLNGATEPGTDIPELLFSLPDGESCPAYI,glycan array binding signal (z-score),[1],1.06
same,glycan array binding signal (z-score),[2],-0.629
same,glycan array binding signal (z-score),[3],0.137
same,glycan array binding signal (z-score),[4],-0.788
same,glycan array binding signal (z-score),[5],-0.268
same,glycan array binding signal (z-score),[6],-0.049
same,glycan array binding signal (z-score),[7],0.17
same,glycan array binding signal (z-score),[8],1.15
same,glycan array binding signal (z-score),[9],0.387
same,glycan array binding signal (z-score),[10],-1.14
same,glycan array binding signal (z-score),[11],1.26
same,glycan array binding signal (z-score),[12],1.64
same,glycan array binding signal (z-score),[13],0.504
same,glycan array binding signal (z-score),[14],-0.455
same,glycan array binding signal (z-score),[15],-0.355
same,glycan array binding signal (z-score),[16],-0.533
same,glycan array binding signal (z-score),Neu5Ac(a2-3)GalNAc,-0.725
same,glycan array binding signal (z-score),[17],0.308
same,glycan array binding signal (z-score),[18],-0.619
same,glycan array binding signal (z-score),[19],-0.187
same,glycan array binding signal (z-score),[20],0.105
same,glycan array binding signal (z-score),[21],-0.546
same,glycan array binding signal (z-score),Neu5Ac(a2-6)Gal,-0.212
same,glycan array binding signal (z-score),[22],-0.986
same,glycan array binding signal (z-score),Neu5Ac(a2-6)Gal(b1-4)Glc,-0.748
same,glycan array binding signal (z-score),[23],-0.933
same,glycan array binding signal (z-score),[24],1.14
same,glycan array binding signal (z-score),[25],-0.059
same,glycan array binding signal (z-score),[26],-0.408
same,glycan array binding signal (z-score),[27],0.006
same,glycan array binding signal (z-score),[28],-1.18
same,glycan array binding signal (z-score),[29],-0.046
same,glycan array binding signal (z-score),[30],-0.239
same,glycan array binding signal (z-score),[31],-0.087
same,glycan array binding signal (z-score),[32],-0.515
same,glycan array binding signal (z-score),[33],1.29
same,glycan array binding signal (z-score),[34],-1.65
same,glycan array binding signal (z-score),[35],-0.237
same,glycan array binding signal (z-score),[36],0.785
same,glycan array binding signal (z-score),[37],-0.119
same,glycan array binding signal (z-score),[38],-0.251
same,glycan array binding signal (z-score),[39],-0.185
same,glycan array binding signal (z-score),[40],0.006
same,glycan array binding signal (z-score),[41],-1.89
same,glycan array binding signal (z-score),[42],2.31

# Reprinted at random: four records from the list
binder,measurement,setting,value
Epa8 (Candida glabrata) (protein) MGSSHHHHHHSSGLVPRGSHMASSRALSDYPLGCSPLLGTKLTPGLSMELYEYPLDNHGIGPHCWDPAYLNPEYPRTGFESHKLIGTAQNVMSLNFEHRTQDCHVEFSNLPASFNFPDQITLTNFTMLLYGYFKPKESGRYRFHMEADDLLLMNLGAGNAFDCCAHEATRNNLGDYIAYDIWAGTRKDVEVFLEKEVFYPLRLFFNNRDGRAALDFSYYLNGATEPGTDIPELLFSLPDGESCPAYI,glycan array binding signal (z-score),[13],0.504
same,glycan array binding signal (z-score),[16],-0.533
same,glycan array binding signal (z-score),[2],-0.629
same,glycan array binding signal (z-score),[9],0.387
